Laboratory results taken from patent publication US20170129954A1 (PROTHENA BIOSCIENCES, published 2017).
No constants are given. Whether binding was seen depends on the method and setting. Some results given as binding are weak or reduced against the parent protein; the word gives no strength. For part of these data: Where a sequence is shown, tags or fusion partners need not be part of it.

What was measured:
[1] = target: T1, human MCAM, full length, expressed on transfected cells (human) (UniProt P43121); assay: summary sentence of the example's results; no method named in the sentence
T1 sequence: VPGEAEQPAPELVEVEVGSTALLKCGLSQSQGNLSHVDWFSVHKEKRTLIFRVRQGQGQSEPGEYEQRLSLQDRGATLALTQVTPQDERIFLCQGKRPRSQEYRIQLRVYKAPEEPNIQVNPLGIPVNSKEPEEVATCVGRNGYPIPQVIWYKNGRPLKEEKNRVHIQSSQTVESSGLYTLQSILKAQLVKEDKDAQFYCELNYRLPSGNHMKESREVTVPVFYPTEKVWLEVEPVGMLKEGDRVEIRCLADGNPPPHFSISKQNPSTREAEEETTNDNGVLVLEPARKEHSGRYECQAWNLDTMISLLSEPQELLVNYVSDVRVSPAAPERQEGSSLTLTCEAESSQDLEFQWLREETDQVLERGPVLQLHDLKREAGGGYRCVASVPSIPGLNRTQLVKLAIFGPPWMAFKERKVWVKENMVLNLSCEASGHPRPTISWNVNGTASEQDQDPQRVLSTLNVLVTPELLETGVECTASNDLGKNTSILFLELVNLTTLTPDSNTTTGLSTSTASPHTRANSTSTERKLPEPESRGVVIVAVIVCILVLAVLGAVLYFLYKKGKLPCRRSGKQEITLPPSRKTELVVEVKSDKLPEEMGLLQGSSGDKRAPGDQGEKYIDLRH

[2] = target: T1, human MCAM, full length, expressed on transfected cells (human); assay: binding affinity experiments, data not shown
[3] = target: T2, combination of human MCAM domains 1 and 2 (amino acids 19-242) hFc (human) (UniProt P43121); assay: ForteBio BLI, MCAMhFc domains on anti-human IgG Fc biosensors, antibody at 5 ug/ml
T2 sequence: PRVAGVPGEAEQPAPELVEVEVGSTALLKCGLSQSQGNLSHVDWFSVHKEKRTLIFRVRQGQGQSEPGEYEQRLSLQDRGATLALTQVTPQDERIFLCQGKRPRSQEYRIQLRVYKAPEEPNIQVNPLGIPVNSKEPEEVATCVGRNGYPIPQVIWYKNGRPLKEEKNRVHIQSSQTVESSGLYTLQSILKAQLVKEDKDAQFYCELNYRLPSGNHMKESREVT

[4] = target: T3, human MCAM domain 3 (amino acids 244-321) hFc (human) (UniProt P43121); assay: as above
T3 sequence: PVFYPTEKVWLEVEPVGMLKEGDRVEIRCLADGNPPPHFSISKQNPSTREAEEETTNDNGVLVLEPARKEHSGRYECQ

[5] = target: T4, wild-type human MCAM, hsMCAM-V5/HIS6, expressed on BHK cells (human) (UniProt P43121); assay: immunofluorescence on BHK cells expressing human MCAM
T4 sequence: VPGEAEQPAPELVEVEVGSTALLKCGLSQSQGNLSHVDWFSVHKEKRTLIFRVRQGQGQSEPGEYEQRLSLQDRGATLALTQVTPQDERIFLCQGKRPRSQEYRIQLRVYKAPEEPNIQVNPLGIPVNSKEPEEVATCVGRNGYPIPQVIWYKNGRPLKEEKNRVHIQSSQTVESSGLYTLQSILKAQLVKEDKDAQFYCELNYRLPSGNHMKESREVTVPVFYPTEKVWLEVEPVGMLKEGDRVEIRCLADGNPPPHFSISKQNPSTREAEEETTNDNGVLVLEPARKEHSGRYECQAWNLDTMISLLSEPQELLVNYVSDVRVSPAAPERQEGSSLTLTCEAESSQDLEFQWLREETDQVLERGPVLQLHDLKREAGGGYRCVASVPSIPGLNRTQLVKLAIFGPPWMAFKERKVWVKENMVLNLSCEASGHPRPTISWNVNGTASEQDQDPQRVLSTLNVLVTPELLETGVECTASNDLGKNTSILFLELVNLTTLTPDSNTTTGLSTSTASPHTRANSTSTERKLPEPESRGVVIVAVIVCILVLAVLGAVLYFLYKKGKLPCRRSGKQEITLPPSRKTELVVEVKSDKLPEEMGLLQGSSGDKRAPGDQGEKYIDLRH

[6] = target: T5, human MCAM (antigen of the BLI kinetics in Example 7) (human) (UniProt P43121); assay: BLI, ForteBio Octet QK
T5 sequence: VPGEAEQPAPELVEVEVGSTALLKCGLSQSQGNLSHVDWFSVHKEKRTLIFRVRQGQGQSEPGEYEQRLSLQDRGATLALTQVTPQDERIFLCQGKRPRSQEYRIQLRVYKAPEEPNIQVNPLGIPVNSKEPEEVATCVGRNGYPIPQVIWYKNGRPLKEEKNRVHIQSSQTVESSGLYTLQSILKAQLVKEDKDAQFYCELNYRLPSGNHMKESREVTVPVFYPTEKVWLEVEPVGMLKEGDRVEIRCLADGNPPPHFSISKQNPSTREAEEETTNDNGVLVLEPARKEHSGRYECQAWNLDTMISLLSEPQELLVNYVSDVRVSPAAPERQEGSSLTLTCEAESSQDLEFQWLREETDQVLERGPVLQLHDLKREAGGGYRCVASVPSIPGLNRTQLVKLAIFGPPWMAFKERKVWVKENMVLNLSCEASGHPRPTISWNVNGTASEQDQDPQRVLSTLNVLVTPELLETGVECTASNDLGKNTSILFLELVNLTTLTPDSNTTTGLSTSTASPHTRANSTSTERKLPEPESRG

B1: rat anti-human MCAM monoclonal antibody clone 2120.4.19 (antibody, V domains shown)
VH: QVQLKESGPGLVQPSQTLSLTCTVSGFSLTSNGVSWVRQPPGKGLEWIAAISSGGTTYYNSAFKSRLSISRNTSKSQVLLKMNSLQTEDTAMYFCARRYGYGWYFDFWGPGTMVTVSS
VL: DIRMTQSPSLLSASVGDRVTLNCKASQNIYNSLAWYQQKLGEGPKVLIFNANSLQTGIPSRFSGSGSGTDFTLTISSLQPEDFATYFCQQFYSGYTFGAGTKLELK
notes: Rat hybridoma monoclonal antibody
Which results are given for B1?
binding [1]: binds; binding [2]: binds; binding [3]: binds

B2: rat anti-human MCAM monoclonal antibody clone 2107.4.10 (antibody, V domains shown)
VH: QVQLKESGPGLVQSSQTLSLTCTVSGFSLTSNGVSWVRQPPGKGLEWIAAISSGGSTYYNSAFKSRLSISRNTSKSQVLLKMNSLQTEDTGMYFCARHRPFYFDYWGQGVMVTVSS
VL: DIQVTQSPSLLSASVGDRVTLNCKGSQNIYKSLAWFRLKRGEAPKLLIYDANSLQTGIPSRFSGSGSGTDFTLTITSLQPEDVATYFCQQYYSGYTFGAGTKLELK
notes: as for B1
With B2 as the binder, how does the binding [1] read?
The binding was “binds”.

What about the binding [2] of the same binder?
Its binding is “binds”.

What about the binding [3] of the same binder?
The binding was “binds”.

B3: mouse anti-human MCAM monoclonal antibody clone 1174.1.3 (antibody, V domains shown)
VH: QIQLVQSGPELKKPGETVKISCKASGYTFTNYGMNWVKQAPGKGLKWMGWINTYTGEPTYADDFKGRFALSLETSASTAYLQINNLKNEDMATYFCARYRYNKYERAMDYWGQGTSVTVSS
VL: DIVLTQSPASLAVSLGQRATISCRASKSVSTSGYSYMYWYQQKPGQPPKLLIYLASNLESGVPARFSGSGSGTDFTLNIHPVEEEDAATYYCQHSRELPFTFGSGTKLEIK
notes: Mouse hybridoma monoclonal antibody
Which binding [4] does the source give for B3 here?
Its binding is “binds”.

B4: mouse anti-human MCAM monoclonal antibody clone 1414.1.2 (antibody, V domains shown)
VH: EIQLQQTGPELVKPGASVKISCKASGYSFTDYIMLWVKQSHGKSLEWIGNINPYSGSSGYNLKFKGKATLTVDKSSSTAYMQLNSLTSEDSAVYYCARGKDFAMDYWGQGTSVTVSS
VL: DIVMSQSPSSLAVSAGEKVTMSCKSSQSLLNSSTRKNFLAWYQQKPGQSPKLLIYWASTRESGVPDRFTGSGSGTDFTLTISSVQAEDLAVYYCKQSYNRYTFGGGTKLEIK
notes: as for B3
For B4, which binding [4] is on record?
Its binding is “binds”.

B5: mouse anti-human MCAM monoclonal antibody clone 1415.1.1 (antibody, V domains shown)
VH: QVQLQQPGAELVQPGAPVKLSCKASGYIFTSYWMNWVKQRPGRGLEWIGRIDPSDSKIHYNQKFKDKATLTVDRSSSTAYIQLGSLTSEDSAVYYCAKEGGLRRGDYAMDYWGQGTSVTVSS
VL: DIVMTQSPATLSVTPGDRVSLSCRASQSISDYLHWYQQKSHESPRLLIKYASQSISGIPSRFSGSGSGSDFTLSINSVEPEDVGVYYCQNGHNFPRTFGGGTKLEIK
notes: as for B3
Which binding [4] does the source give for B5 here?
Its binding is “binds”.

B6: mouse anti-human MCAM monoclonal antibody clone 1749.1.3 (antibody, V domains shown)
VH: DVKLVESGGDLVKPGGSLKLSCAASGFTFSSYIMSWVRQTPEKRLEWVATISSGGSSTYYPDSVKGRFTISRDNAKNTLYLQMSSLKSEDTAMYYCTRDDDYDVKVFAYWGQGTLVTVSA
VL: DIVMSQSPSSLAVSAGEKVTMNCKSSRSLLNSRIRKNYLAWYQQKPGQSPKLLIYWASTRESGVPDRFTGSGSGTDFTLTISSVQAEDLAVYYCKQSYNLLTFGAGTKLELK
notes: Mouse hybridoma monoclonal antibody; also called m1749
How did the binding [5] turn out when B6 was run?
Its binding is “binds”.

What about the binding [4] of the same binder?
The binding was “binds”.

B7: Human 1749VH3VL3 (Hu1749VHv3 and Hu1749VLv3) (antibody, V domains shown)
VH: EVKLVESGGGLVQPGGSLRLSCAASGFTFSSYIMSWVRQTPEKRLEWVATISSGGSSTYYPDSVKGRFTISRDNAKNTLYLQMSSLKSEDTAMYYCTRDDDYDVKVFAYWGQGTLVTVSS
VL: DIVMTQSPSSLAVSLGERVTINCKSSRSLLNSRIRKNYLAWYQQKPGQSPKLLIYWASTRESGVPDRFSGSGSGTDFTLTISSLQAEDVAVYYCKQSYNLLTFGQGTKVEIKR
notes: also called hu1749VH3VL3; hu1749H3L3
How did the binding [6] turn out when B7 was run?
The binding was “binds”.
